Test results reported in PubChem BioAssay AID540275 (National Center for Advancing Translational Sciences (NCATS), 2011).
Values joined by “and” are separate entries in the source; they are usually repeats but may differ in a detail not shown here. Equal values may be shown once. The campaign covered roughly 320,000 compounds. About 620 (0.19%) were called active. Inconclusive results, whose numbers are uncertain, are shown with a selection of clear calls. No stated cut-off is given here; in the data, active means activation above about 80%; inconclusive means between about 30% and that limit; inactive means weaker than that.

By UniProt entry, the sequences of proteins in these tests, tags left out.
UniProt Q8NER1, whole entry, looked up: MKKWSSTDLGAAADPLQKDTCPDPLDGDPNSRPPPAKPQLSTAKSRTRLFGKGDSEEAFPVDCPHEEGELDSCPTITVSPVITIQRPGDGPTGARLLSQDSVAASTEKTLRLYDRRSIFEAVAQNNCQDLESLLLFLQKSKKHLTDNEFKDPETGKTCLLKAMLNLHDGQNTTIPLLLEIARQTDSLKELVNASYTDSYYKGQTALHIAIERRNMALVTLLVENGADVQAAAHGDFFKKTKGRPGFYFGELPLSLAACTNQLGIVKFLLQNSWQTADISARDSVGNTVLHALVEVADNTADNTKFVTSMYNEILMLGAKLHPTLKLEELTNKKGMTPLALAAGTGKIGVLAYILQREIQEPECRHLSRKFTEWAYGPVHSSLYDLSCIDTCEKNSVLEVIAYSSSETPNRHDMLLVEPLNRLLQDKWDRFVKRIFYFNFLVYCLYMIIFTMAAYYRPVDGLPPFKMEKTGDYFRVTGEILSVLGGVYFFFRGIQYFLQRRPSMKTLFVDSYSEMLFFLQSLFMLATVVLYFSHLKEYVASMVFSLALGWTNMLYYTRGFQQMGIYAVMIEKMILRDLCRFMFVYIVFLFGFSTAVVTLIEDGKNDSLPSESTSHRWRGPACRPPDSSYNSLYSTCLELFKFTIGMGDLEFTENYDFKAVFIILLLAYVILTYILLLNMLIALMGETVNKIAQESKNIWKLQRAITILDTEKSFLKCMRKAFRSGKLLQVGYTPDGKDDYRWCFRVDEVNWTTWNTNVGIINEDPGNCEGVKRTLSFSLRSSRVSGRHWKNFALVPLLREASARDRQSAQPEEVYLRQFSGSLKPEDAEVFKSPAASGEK

biological target: Transient receptor potential cation channel subfamily V member 1 (Homo sapiens) (UniProt Q8NER1); assay: HTS Assay for Compounds that Act as Agonists of the Vanilloid Receptor 1; conditions: TRPV1-expressing cells, Fluo-8 calcium influx, agonist mode; at 8.33 µM, stronger effect = higher value; on activation: 0% is about no effect
Summary of the method: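 Cells expressing TRPV1 were dye-loaded with Fluo-8 and read kinetically: 10 s baseline, 3 min after compound (agonist portion), then 2 min after EC20 capsaicin (allosteric enhancer portion). Calcium-bound dye fluorescence at 480/520 nm.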

Compound | activation
CC1CN(C(=O)c2ccc(-c3ccccc3Cl)o2)CC(C)O1 (stereo unspecified) | inconclusive: 49.9%
Cc1ccc(CCNC(=O)CSCc2ccc(F)cc2)cc1 | inconclusive: 49.6%
CCCCNC(=O)CCc1c(C)nc2c(c(C)nn2-c2ccccc2)c1C | active: 93.7%
CCc1nc(N2CCC3(CC2)OCCO3)c2nnn(Cc3ccccc3)c2n1 | inconclusive: 30.1%
Cc1nnc(SCC(=O)N2c3ccccc3C(C)(c3ccc(Cl)cc3)CC2(C)C)s1 (stereo unspecified) | inconclusive: 30.3%
O=c1cc2c(nn1Cc1c(Cl)cccc1Cl)-c1ccccc1CC2 | inconclusive: 37.1%
O=C(NCCCC1CCCC1)C1CCC(=O)N(Cc2cccc(F)c2)C1 (stereo unspecified) | inconclusive: 72.3%
O=C(CCn1c(=O)c2sccc2n(Cc2cc(=O)n3ccccc3n2)c1=O)NCc1ccco1 | inactive: -3.74%
C=C(C)COc1ccc(-c2n[nH]c(C)c2-c2ccc(OC)c(OC)c2)c(O)c1 | inactive: 7.68%
O=C(NCc1ccccc1)c1ccccc1-c1nc2ccccc2[nH]1 | inconclusive: 33.8%
Cc1cc(C)cc(N2C(=O)CN(Cc3sccc3C)C2=S)c1 | inconclusive: 39.3%
Cc1ccsc1/C=N/Nc1nc2ccccc2s1 | inconclusive: 44%
CC1(C)CC(=O)C=C(c2ccc(Cl)c(C(F)(F)F)c2)C1 | inconclusive: 50.4%
CNC(=O)Nc1cccc(-c2cc(-c3c(Cl)cccc3Cl)no2)c1 | inconclusive: 49.9%
Cc1cccc(C(=O)Nc2ccccc2C(=O)NCc2ccco2)c1 | inconclusive: 30.5%
CCOc1c(Br)cc(C(=O)OCC(=O)N2CCc3ccccc3C2)cc1OC | inconclusive: 36.4%
Cc1ccc(NC(=O)CCOc2ccccc2C)cc1F | inconclusive: 57.1%
CCn1cc(CCCC(=O)NCc2cccnc2)c2ccccc21 | inconclusive: 60.7%
Cc1ccc(OCCCC(=O)Nc2ccc(N3CCOCC3)cc2)c(C)c1 | inconclusive: 49.4%
COc1ccccc1C(=O)NNC(=S)NC(=O)c1cccs1 | inactive: 2.09%
CCOC(=O)/C(C)=C1\NC(C)(C)Cc2ccccc21 | inactive: 1.73%
Cc1cc(NC(=O)C2CCCC2)nc2c1c(=O)oc1ccccc12 | inconclusive: 44.3%
COC(=O)C1=C(C)N(Cc2ccccc2)C(=NCC2CC2)N[C@H]1c1ccccc1 | inactive: 4.55% and inactive: -0.755%

A second format for part of the listing above.
Compound	activation
C=C(C)COc1ccc(-c2n[nH]c(C)c2-c2ccc(OC)c(OC)c2)c(O)c1	inactive: 7.68%
O=C(NCc1ccccc1)c1ccccc1-c1nc2ccccc2[nH]1	inconclusive: 33.8%
Cc1cc(C)cc(N2C(=O)CN(Cc3sccc3C)C2=S)c1	inconclusive: 39.3%

The listing continues.

Compound | activation
CCn1nc(C)cc1C(=O)NC1CC(C)(C)Cc2c1cnn2-c1cccc(F)c1 (stereo unspecified) | inconclusive: 58.4%
O=C(Cc1ccc(Cl)cc1Cl)NC1CCCCCC1 | inconclusive: 34.3%
CC1CCCC(NC(=O)c2ccc(F)c(S(=O)(=O)N3CCOCC3)c2)C1C (stereo unspecified) | inconclusive: 39.4%
COc1ccc(CCNC(=O)c2ccc([N+](=O)[O-])cc2)cc1 | inconclusive: 51.4%
CCCc1ccc(C(=O)N2CCN(c3ccccc3OCC)CC2)cc1 | inconclusive: 38.5%
O=C1OC2(CCCCC2)CC2=C1C1O[C@](c3ccsc3)(Cc3c1ccc1ccccc31)O2 | inactive
CN(Cc1ccc(C(F)(F)F)cc1)C(=O)c1ccc(Oc2ccccc2)cc1 | inactive: 15.8%
Cc1ccc(C)c(C(=O)Nc2cc(C)nn2-c2nc(C)cc(C)n2)c1 | inconclusive: 58.7%
CCN(C(=O)CSc1ncn[nH]1)c1c(N)n(Cc2ccccc2)c(=O)[nH]c1=O | inactive: -0.571%
O=C(COc1ccc(-c2ccccc2)cc1)NN=C1CCCC1 | inconclusive: 33.2%
CCc1ccc(NC(=O)c2ccc3c(c2)C(=O)N(Cc2ccco2)C3=O)cc1 | inconclusive: 32.6%
Brc1c(CSc2nc3ccccc3s2)nc2ncccn12 | inactive: 0.53%
O=C(COC(=O)/C=C/c1ccco1)NCc1ccccc1Cl | inconclusive: 42%
NC(=NC(=O)c1cccc(C(F)(F)F)c1)c1ccc(C(F)(F)F)cn1 | inconclusive: 38.4%
COc1ccc(SCCN2CC[C@@H](C(C)(C)C)CCC2=O)cc1 | inconclusive: 66.8%
CC(=O)Nc1ccc(S(=O)(=O)N2CCN(S(=O)(=O)c3ccccc3)CC2)cc1 | inactive: 2.34%
O=S(=O)(c1ccc(Cl)cc1)N1CCN(C(=S)Nc2ccc(F)c(Cl)c2)CC1 | inactive: 6.31%
CC1CCCN(C(=O)COC(=O)CNC(=O)c2sc3ccccc3c2Cl)C1 (stereo unspecified) | inactive: 1.37%
CCN(CC)C(=O)CSc1nc2ccccc2c(=O)n1CC1CCCCC1 | inconclusive: 43.8%
O=C(Nc1cccc(C(F)(F)F)c1)c1ccc(Cn2cc(Br)cn2)o1 | inconclusive: 38.3%
Fc1ccc(C2=Nn3c(Cc4ccccc4)nnc3SC2)cc1 | inconclusive: 56.2%
CN=C1SC(CC(=O)Nc2ccccc2F)C(=O)N1/N=C/c1ccc(O)c(OC)c1 (stereo unspecified) | inactive: -5.05%
CCOC(=O)Cn1c(=O)oc2cc(S(=O)(=O)Nc3c(C)cc(C)cc3C)ccc21 | inconclusive: 55.5%

Compound | activation
Cc1[nH]n(-c2ccccc2)c(=O)c1C=NCc1ccco1 | inactive: 1.44%
CNC(=O)c1sc(N2N=C3/C(=C/c4ccccc4)CCCC3C2c2ccccc2)nc1C (stereo unspecified) | inconclusive: 39.6%
Cc1ccc(Sc2nc3c(c(=O)[nH]c(=O)n3C)n2CCc2ccccc2)cc1 | inconclusive: 42.7%
CCCCN1C(=S)NC[C@@H]1Cc1ccccc1 | inactive: 1.25%
CC(NC(=O)Nc1cccc(F)c1)c1ccc2c(c1)OCO2 (stereo unspecified) | inconclusive: 67.6%
O=C(CCSc1ccc(Cl)cc1)Nc1cccnc1 | inconclusive: 44.6%
Cc1cc(N2CCN(C(c3ccccc3)c3ccc(Cl)cc3)CC2)n2ncnc2n1 (stereo unspecified) | inconclusive: 42.9%
FC(F)Oc1ccc(NC(=S)NC2CCCCCCC2)cc1 | inconclusive: 51.5%
N=c1c(C(=O)NCC2CCCO2)cc2c(=O)n3ccccc3nc2n1Cc1ccccc1Cl (stereo unspecified) | inconclusive: 66.9%
Cc1ccc(NC(=O)c2ccc(S(=O)(=O)NCc3ccco3)cc2)cc1 | active: 81.9%
O=C(COC(=O)c1ccc(F)cc1)NCCCc1ccccc1 | inconclusive: 47.3%
Cc1ccccc1/C=C/C(=O)N1CCOCC1 | inconclusive: 64.9%
O=C(Nc1cccc(-c2cccc(Cl)c2)c1)C1CCN(Cc2ccccn2)CC1 | inactive: 20%
CN(Cc1ccco1)c1ncnc2ccc(-c3ccc4c(c3)OCO4)cc12 | inconclusive: 31.2%
O=C(NCc1csc(-c2cccs2)n1)c1ccccc1 | inconclusive: 31%
Cc1ccn2c(=O)nc(SCC(=O)N3CCC(Cc4ccccc4)CC3)nc2c1 | inactive: -3.9%
Cc1cc(NC(=O)C2CCCCC2)n(-c2nc3ccccc3[nH]2)n1 | inconclusive: 67.9%
CC1(c2ccccc2)CC(C)(C)N2C(=O)C3(C(C#N)=C(N)Oc4cc(O)ccc43)c3cccc1c32 (stereo unspecified) | inconclusive: 39.2%
COc1ccc(NC(=O)c2ccc(C(=O)c3cc(OC)ccc3OC)cc2)cc1 | inactive: 26.9%
CCOCC(=O)Nc1nc2ccc(OCC)cc2s1 | inconclusive: 44.2%
Cc1ccc2nc(SCCCCOc3ccccc3)[nH]c2c1 | inactive: 18.8%
Cc1cc(C)c(C#N)c(N2CCN(Cc3ccc4c(c3)OCO4)CC2)n1 | inactive: 15%
CC(=O)N1CCN(S(=O)(=O)c2cccc(C(=O)N(Cc3ccccc3)c3cccc(C)c3)c2)CC1 | inconclusive: 38.6%

Compound | activation
O=C(CSc1ccccn1)N1CCN(c2ccccc2)CC1 | inconclusive: 37.2%
CCOC(=O)N1CCN(c2cccc(C)c2C)CC1 | inconclusive: 59.4%
Cn1c(SCc2ccc(C(C)(C)C)cc2)nnc1C1COc2ccccc2O1 (stereo unspecified) | inconclusive: 36.3%
O=C(Nc1ccc(CN2CCCCC2)cc1)c1sc2ccccc2c1Cl | inactive: 4.42%
CCCn1c(N2CCN(C(=O)Nc3ccc(Cl)cc3)CC2)nc2ccccc21 | active: 80.9%
S=c1[nH]nc(C2CCCCC2)n1/N=C/c1ccccc1 | inactive: 13.6%
CCOc1ccccc1N1CCN(C(=S)NCc2ccccc2)CC1 | inconclusive: 55.1%
Cc1ccccc1Cn1cnc2c(cnn2C(C)(C)C)c1=O | inconclusive: 30.9%
O=C(CCSc1ccc(Cl)cc1)N1CCN(c2ccc(O)cc2)CC1 | inconclusive: 61.1%
COc1ccc(C)cc1NC(=O)C(Sc1ccccc1)c1ccccc1 (stereo unspecified) | inconclusive: 30.8%
Cc1ccc(-n2c(C)cc(/C=N/NC(=O)c3ccncc3)c2C)cc1C | inconclusive: 43.8%
Cc1cc(C)n(-c2nc(NCCC(C)C)c3c4c(sc3n2)COC(C)(C)C4)n1 | inconclusive: 32.8%
COc1ccc(NC(=O)c2cc(-c3ccccc3)on2)cc1OC | inactive: 2.17%
Cc1cccc(NC(=O)N2CCC(C(=O)c3ccc(F)cc3)CC2)c1 | inconclusive: 55.1%
COCC(=O)Nc1ccc(Nc2ccccc2)cc1 | inactive: 16.4%
CSc1nc2nc3c(cc2c(=O)n1-c1ccccc1C)COC(C)(C)C3 | inactive: 5.86%
CCCCSc1nnc([C@H](CC(C)C)NC(=O)OC(C)(C)C)o1 | inconclusive: 63.6%
Cc1ccc(-c2nn(CCC(=O)Nc3cccnc3)c(=O)c3ccccc23)cc1 | inconclusive: 46.2%
COc1ccc(C(=O)CCN2CCc3cc(OC)c(OC)cc3C2)cc1 | inconclusive: 50.9%
COc1ccc(NC(=O)CNC(=O)Cn2cnc3sc4c(c3c2=O)CCCC4)cc1OC | inactive: 1.05%
COc1ccc(CC(=O)OCC(=O)Nc2ccc3c(c2)OCO3)cc1OC | inconclusive: 64.7%
O=C(Nc1ccc(Br)cc1F)c1ccc2nsnc2c1 | inconclusive: 70.8%

2 neighbouring compounds already listed, quoted:
Compound | activation
COC(=O)C1=C(C)N(Cc2ccccc2)C(=NCC2CC2)N[C@H]1c1ccccc1 | inactive: 4.55% and inactive: -0.755%
CCn1nc(C)cc1C(=O)NC1CC(C)(C)Cc2c1cnn2-c1cccc(F)c1 (stereo unspecified) | inconclusive: 58.4%
